Results deposited as PubChem BioAssay AID1259308 (NCATS, 2017).

Aim: 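Genes whose loss raises luciferase production in HEK293 cells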 (primary screen)
System: human HEK293 embryonic kidney cells stably expressing firefly luciferase (HEK-CMV-Luc2-Hygro)
Knock-down reagent: single siRNA against human genes, 0.8 pmol siRNA per well
Time to read-out: 72 h
Detection: 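Luciferase light (ONE-Glo) measured on one replicate plate set and viability (CellTiter-Glo) on the other, scaled to a negative control siRNA, with robust z-scores and luciferase per cell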
Scale: total luciferase, z-score: higher = more reporter protein produced
Hit rule: 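An siRNA counts as active if its total luciferase robust z-score exceeds 3; genes with two or more such siRNAs out of three were retested with fresh siRNAs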
Meaning of the calls: active = raised luciferase; inactive = no rise
Shown is an unselected part of about 59,000 reagents. Over the whole deposit, about 1,510 (2.6%) are marked active. 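Calls use total luciferase alone and ignore viability, so some active siRNAs may act by altering cell number.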 A number with no mark means an inactive call. The numbers tell different reagents against one gene apart. Not all columns of the deposit are shown.

What is on record for UBE2L3 (GeneID 7332) #1?
total luciferase, z-score: -0.0637

What did the screen give for UBE2L3 (GeneID 7332) #2?
total luciferase, z-score: -0.257

What is on record for UBE2L3 (GeneID 7332) #3?
total luciferase, z-score: 1.77

With DNAJC8 (GeneID 22826) #1, how do the results read?
total luciferase, z-score: -0.32

What is on record for DNAJC8 (GeneID 22826) #2?
total luciferase, z-score: 1.28

What is on record for DNAJC8 (GeneID 22826) #3?
total luciferase, z-score: 1.47

Single entries from the entries so far:
Result of UBE2L3 (GeneID 7332) #1 under “total luciferase, z-score”: -0.0637
For “total luciferase, z-score”, DNAJC8 (GeneID 22826) #3 shows 1.47

Continued.
How did the screen score CTNNA2 (GeneID 1496) #1?
total luciferase, z-score: -2.12

For CTNNA2 (GeneID 1496) #2, what was measured?
total luciferase, z-score: 0.247

What is on record for CTNNA2 (GeneID 1496) #3?
total luciferase, z-score: -0.382

How did the screen score MYL6 (GeneID 4637) #1?
total luciferase, z-score: -0.0887

How did the screen score MYL6 (GeneID 4637) #2?
total luciferase, z-score: -1.14

For MYL6 (GeneID 4637) #3, how do the results read?
total luciferase, z-score: 1.52
